Experimental data reported in PMC7555845.
These are yes or no findings as the source states them, for the method shown. Binding seen in cells or lysates may run through a third protein. A result given as binding can be weak or reduced; the word gives no strength. Sequences can lack the tags named with a protein.

Target: GFP-tagged JMJD6-Ex5 (human)
Assay: co-IP; HEK 293T lysates 48 h after co-transfection; anti-GFP beads (ChromoTek); input, flow-through and bound fractions blotted with anti-GFP, anti-HA or anti-Flag

binding: binds
B1: Flag-tagged FCP1 (protein, UniProt Q9Y5B0 1-961)
chain: MEVPAAGRVPAEGAPTAAVAEVRCPGPAPLRLLEWRVAAGAAVRIGSVLAVFEAAASAQSSGASQSRVASGGCVRPARPERRLRSERAGVVRELCAQPGQVVAPGAVLVRLEGCSHPVVMKGLCAECGQDLTQLQSKNGKQQVPLSTATVSMVHSVPELMVSSEQAEQLGREDQQRLHRNRKLVLMVDLDQTLIHTTEQHCQQMSNKGIFHFQLGRGEPMLHTRLRPHCKDFLEKIAKLYELHVFTFGSRLYAHTIAGFLDPEKKLFSHRILSRDECIDPFSKTGNLRNLFPCGDSMVCIIDDREDVWKFAPNLITVKKYVYFQGTGDMNAPPGSRESQTRKKVNHSRGTEVSEPSPPVRDPEGVTQAPGVEPSNGLEKPARELNGSEAATPRDSPRPGKPDERDIWPPAQAPTSSQELAGAPEPQGSCAQGGRVAPGQRPAQGATGTDLDFDLSSDSESSSESEGTKSSSSASDGESEGKRGRQKPKAAPEGAGALAQGSSLEPGRPAAPSLPGEAEPGAHAPDKEPELGGQEEGERDGLCGLGNGCADRKEAETESQNSELSGVTAGESLDQSMEEEEEEDTDEDDHLIYLEEILVRVHTDYYAKYDRYLNKEIEEAPDIRKIVPELKSKVLADVAIIFSGLHPTNFPIEKTREHYHATALGAKILTRLVLSPDAPDRATHLIAARAGTEKVLQAQECGHLHVVNPDWLWSCLERWDKVEEQLFPLRDDHTKAQRENSPAAFPDREGVPPTALFHPMPVLPKAQPGPEVRIYDSNTGKLIRTGARGPPAPSSSLPIRQEPSSFRAVPPPQPQMFGEELPDAQDGEQPGPSRRKRQPSMSETMPLYTLCKEDLESMDKEVDDILGEGSDDSDSEKRRPEEQEEEPQPRKPGTRRERTLGAPASSERSAAGGRGPRGHKRKLNEEDAASESSRESSNEDEGSSSEADEMAKALEAELNDLM
